PubChem BioAssay AID1224828 – NIAID | 2016
Assay: 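Knock-downs that increase or decrease LPS-induced p65 nuclear translocation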 (primary screen). System: mouse RAW264.7 G9 macrophage reporter cells (GFP-p65, Tnf promoter-mCherry). Knock-down reagent: siRNA pool against mouse genes, 100 nM. Time to read-out: 2 days siRNA transfection, then 40 min LPS before fixation. Treatment: LPS (Salmonella minnesota R595) at 10 ng/ml. Detection: 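Microscopy ratio of nuclear to perinuclear-ring GFP-p65 signal, scaled to the plate median; gene score is the average of two replicate robust z-scores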. Scale: p65 translocation robust z-score: higher = more nuclear NF-kappaB p65 after LPS than the plate median; nuclear/cytoplasmic p65 ratio: higher = more nuclear NF-kappaB p65. Active means: 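Active if robust z is above 3.3 (negative regulators) or below -1.56, the Tlr4 control median (positive regulators); activity score 50 or more; control wells not called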. Meaning of the calls: active = hit (p65 shift raised or lowered); inactive = no clear change.
In all, the deposit lists about 17,000 reagents; shown is an unselected part. 762 of all reagents (4.5%) count as active. 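Active calls include both raised and lowered p65 entry, mostly lowered; wells with fewer than 50 cells lack a z-score.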 Raw values vary from plate to plate and are shown uncorrected.

For Ptges2 (GeneID 96979) [SID315476090] the deposit lists p65 translocation robust z-score 0.09; nuclear/cytoplasmic p65 ratio, rep 1 = 1.44; nuclear/cytoplasmic p65 ratio, rep 2 = 1.18; low cell count flag enough cells to score; inactive.
Fam185a (GeneID 330050) [SID315481565] scored p65 translocation robust z-score -0.85; nuclear/cytoplasmic p65 ratio, rep 1 = 1.47; nuclear/cytoplasmic p65 ratio, rep 2 = 1.56; low cell count flag enough cells to score; inactive.
After knock-down of Mab21l3 (GeneID 242125) [SID315479598], the record shows p65 translocation robust z-score -0.37; nuclear/cytoplasmic p65 ratio, rep 1 = 1.44; nuclear/cytoplasmic p65 ratio, rep 2 = 1.87; low cell count flag enough cells to score; inactive.
With knock-down of Cyp2d9 (GeneID 13105) [SID315466235] the results were p65 translocation robust z-score -1; nuclear/cytoplasmic p65 ratio, rep 1 = 1.41; nuclear/cytoplasmic p65 ratio, rep 2 = 1.62; low cell count flag enough cells to score; inactive.
Against Snapc4 (GeneID 227644) [SID315478578] the deposit lists nuclear/cytoplasmic p65 ratio, rep 1 = 1.65; nuclear/cytoplasmic p65 ratio, rep 2 = 1.32; low cell count flag fewer than 50 cells per well; well left out of scoring; inactive.
Against Zmynd11 (GeneID 66505) [SID315472481], the values are p65 translocation robust z-score -0.93; nuclear/cytoplasmic p65 ratio, rep 1 = 1.5; nuclear/cytoplasmic p65 ratio, rep 2 = 1.35; low cell count flag enough cells to score; inactive.
Knock-down of Arpc2 (GeneID 76709) [SID315475365] came out at: p65 translocation robust z-score -1.29; nuclear/cytoplasmic p65 ratio, rep 1 = 1.39; nuclear/cytoplasmic p65 ratio, rep 2 = 1.46; low cell count flag enough cells to score; inactive.
Map2k3os (GeneID 24082) [SID315470317] showed p65 translocation robust z-score -1.7; nuclear/cytoplasmic p65 ratio, rep 1 = 1.15; nuclear/cytoplasmic p65 ratio, rep 2 = 1.31; low cell count flag enough cells to score; active.
For A830031A19Rik (GeneID 268391) [SID315480762], the entry reads p65 translocation robust z-score 0.73; nuclear/cytoplasmic p65 ratio, rep 1 = 1.34; nuclear/cytoplasmic p65 ratio, rep 2 = 1.63; low cell count flag enough cells to score; inactive.
Against Them5 (GeneID 66198) [SID315472283], the entry reads p65 translocation robust z-score -1.44; nuclear/cytoplasmic p65 ratio, rep 1 = 1.3; nuclear/cytoplasmic p65 ratio, rep 2 = 1.17; low cell count flag enough cells to score; inactive.
For Pced1a (GeneID 319513) [SID315481104] the deposit lists p65 translocation robust z-score -0.03; nuclear/cytoplasmic p65 ratio, rep 1 = 1.36; nuclear/cytoplasmic p65 ratio, rep 2 = 1.54; low cell count flag enough cells to score; inactive.
After knock-down of Chchd2l2 (GeneID 71970) [SID315474398], the record shows p65 translocation robust z-score -1.85; nuclear/cytoplasmic p65 ratio, rep 1 = 1.29; nuclear/cytoplasmic p65 ratio, rep 2 = 1.21; low cell count flag enough cells to score; active.
